No constants are given. Whether binding was seen depends on the method and setting. For some of these results: In cells and extracts the contact can be indirect. Some binding calls cover weakened binding; strength is not graded here. For some of these results: Where a sequence is shown, tags or fusion partners need not be part of it.
T1: Aplip1-GFP (pan-neuronally driven cDNA construct) (D. melanogaster) (UniProt Q9W0K0)
T1 sequence: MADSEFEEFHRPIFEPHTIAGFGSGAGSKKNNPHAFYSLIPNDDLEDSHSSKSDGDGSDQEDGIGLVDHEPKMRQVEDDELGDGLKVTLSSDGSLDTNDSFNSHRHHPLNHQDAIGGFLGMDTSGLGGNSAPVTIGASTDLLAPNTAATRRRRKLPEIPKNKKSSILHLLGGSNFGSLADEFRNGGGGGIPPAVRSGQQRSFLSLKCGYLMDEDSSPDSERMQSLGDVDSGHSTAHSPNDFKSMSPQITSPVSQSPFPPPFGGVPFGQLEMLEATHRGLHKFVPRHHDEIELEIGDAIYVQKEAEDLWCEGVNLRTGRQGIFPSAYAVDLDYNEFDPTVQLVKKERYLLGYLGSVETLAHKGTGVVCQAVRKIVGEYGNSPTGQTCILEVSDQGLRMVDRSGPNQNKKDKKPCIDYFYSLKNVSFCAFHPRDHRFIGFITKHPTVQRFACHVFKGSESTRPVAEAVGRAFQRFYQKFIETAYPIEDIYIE

Sequences of proteins named here, by UniProt entry; tags and fusion partners are left off.
UniProt A0A0B4K7K9: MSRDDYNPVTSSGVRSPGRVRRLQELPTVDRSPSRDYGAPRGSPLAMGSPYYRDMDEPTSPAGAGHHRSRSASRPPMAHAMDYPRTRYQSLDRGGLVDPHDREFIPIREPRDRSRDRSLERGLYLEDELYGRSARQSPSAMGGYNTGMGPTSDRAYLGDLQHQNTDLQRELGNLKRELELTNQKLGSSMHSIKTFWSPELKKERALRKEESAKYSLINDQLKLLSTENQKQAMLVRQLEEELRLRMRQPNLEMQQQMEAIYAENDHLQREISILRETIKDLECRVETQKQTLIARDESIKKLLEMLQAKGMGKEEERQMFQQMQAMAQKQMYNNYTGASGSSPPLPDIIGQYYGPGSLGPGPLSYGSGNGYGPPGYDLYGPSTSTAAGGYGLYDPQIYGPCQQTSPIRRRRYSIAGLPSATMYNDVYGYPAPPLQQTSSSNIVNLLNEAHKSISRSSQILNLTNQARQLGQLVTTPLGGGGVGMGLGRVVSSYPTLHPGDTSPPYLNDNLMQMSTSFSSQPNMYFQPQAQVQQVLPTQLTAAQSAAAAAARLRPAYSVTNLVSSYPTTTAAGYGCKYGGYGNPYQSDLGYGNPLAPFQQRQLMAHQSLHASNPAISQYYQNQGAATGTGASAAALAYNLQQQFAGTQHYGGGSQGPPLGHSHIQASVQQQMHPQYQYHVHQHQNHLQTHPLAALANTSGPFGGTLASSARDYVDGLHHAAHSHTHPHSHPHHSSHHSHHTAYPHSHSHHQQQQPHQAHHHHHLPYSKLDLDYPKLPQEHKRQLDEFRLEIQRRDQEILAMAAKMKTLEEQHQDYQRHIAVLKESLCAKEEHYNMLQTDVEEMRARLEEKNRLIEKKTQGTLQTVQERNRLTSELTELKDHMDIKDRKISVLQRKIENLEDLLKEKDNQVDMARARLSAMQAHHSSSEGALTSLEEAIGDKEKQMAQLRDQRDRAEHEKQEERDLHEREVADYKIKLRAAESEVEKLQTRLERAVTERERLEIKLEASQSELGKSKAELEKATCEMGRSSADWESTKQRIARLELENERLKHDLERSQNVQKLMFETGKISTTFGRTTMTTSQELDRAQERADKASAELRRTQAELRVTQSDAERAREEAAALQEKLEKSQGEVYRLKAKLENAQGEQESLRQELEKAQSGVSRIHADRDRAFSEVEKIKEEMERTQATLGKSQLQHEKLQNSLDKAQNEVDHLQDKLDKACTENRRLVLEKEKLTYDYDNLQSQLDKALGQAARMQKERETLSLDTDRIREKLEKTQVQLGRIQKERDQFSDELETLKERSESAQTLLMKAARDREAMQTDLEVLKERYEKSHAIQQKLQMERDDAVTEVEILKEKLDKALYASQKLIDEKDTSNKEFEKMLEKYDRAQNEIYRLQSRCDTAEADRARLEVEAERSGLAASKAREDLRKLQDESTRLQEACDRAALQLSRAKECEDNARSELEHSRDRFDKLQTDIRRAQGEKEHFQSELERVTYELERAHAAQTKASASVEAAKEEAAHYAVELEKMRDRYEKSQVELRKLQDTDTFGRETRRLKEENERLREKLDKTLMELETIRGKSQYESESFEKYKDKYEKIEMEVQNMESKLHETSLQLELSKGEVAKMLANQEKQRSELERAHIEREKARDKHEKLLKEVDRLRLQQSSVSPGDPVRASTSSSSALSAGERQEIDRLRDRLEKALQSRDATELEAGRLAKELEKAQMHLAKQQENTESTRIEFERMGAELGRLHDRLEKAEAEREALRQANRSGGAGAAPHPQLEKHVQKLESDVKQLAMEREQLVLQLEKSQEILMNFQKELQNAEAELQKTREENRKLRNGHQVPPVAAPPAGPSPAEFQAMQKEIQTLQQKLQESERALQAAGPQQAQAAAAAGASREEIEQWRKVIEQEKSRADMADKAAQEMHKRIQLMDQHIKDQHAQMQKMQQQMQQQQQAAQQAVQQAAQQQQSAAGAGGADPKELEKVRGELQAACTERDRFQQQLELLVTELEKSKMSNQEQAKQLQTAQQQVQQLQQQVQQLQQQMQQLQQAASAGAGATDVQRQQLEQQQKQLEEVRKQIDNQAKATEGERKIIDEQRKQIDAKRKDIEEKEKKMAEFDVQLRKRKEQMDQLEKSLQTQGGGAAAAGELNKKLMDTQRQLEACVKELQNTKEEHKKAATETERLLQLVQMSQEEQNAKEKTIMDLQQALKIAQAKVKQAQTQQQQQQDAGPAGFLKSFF

T2: RBP SH3-II+III (yeast two-hybrid bait fragment, 209 AA) (D. melanogaster)
T2 sequence: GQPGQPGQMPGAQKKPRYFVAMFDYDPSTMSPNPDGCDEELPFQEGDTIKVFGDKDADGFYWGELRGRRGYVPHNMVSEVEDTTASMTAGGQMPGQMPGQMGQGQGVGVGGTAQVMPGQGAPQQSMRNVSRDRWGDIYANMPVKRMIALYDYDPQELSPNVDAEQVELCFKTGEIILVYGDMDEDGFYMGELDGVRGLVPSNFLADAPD

T3: RBP SH3-II (yeast two-hybrid bait) (D. melanogaster)
T3 sequence: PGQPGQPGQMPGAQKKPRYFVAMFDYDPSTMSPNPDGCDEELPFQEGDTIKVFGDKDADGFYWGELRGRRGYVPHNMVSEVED

T4: RBP SH3-III (yeast two-hybrid bait) (D. melanogaster)
T4 sequence: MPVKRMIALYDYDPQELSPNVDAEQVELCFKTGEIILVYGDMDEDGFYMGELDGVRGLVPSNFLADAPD

T5: RBP SH3-I (ITC construct) (D. melanogaster)
T5 sequence: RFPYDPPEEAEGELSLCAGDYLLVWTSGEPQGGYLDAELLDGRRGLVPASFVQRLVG


Columns and labels:
[1] = target: T1, Aplip1-GFP (pan-neuronally driven cDNA construct) (D. melanogaster); assay: co-IP; anti-GFP (GFP-Trap-A beads) from adult fly head extract (synaptic membrane / active zone protein-enriched fraction) of elav-Gal4 > UAS-Aplip1^GFP; deoxycholate and Triton X-100 lysate, overnight 4°C; Western blot; controls plain beads and GFP trapped beads
[2] = target: T2, RBP SH3-II+III (yeast two-hybrid bait fragment, 209 AA) (D. melanogaster); assay: two-hybrid; large-scale screen, LexA system (pB27 bait, pP6 prey), RBP SH3-II+III as bait against the HYBRIGENICS D. melanogaster adult head library; RIM and Cac clones not shown
[3] = target: T3, RBP SH3-II (yeast two-hybrid bait) (D. melanogaster); assay: two-hybrid; semi-quantitative liquid ß-galactosidase assay; RBP constructs as bait (pB27), Aplip1 fragments as prey; n = 3 independent experiments
[4] = target: T4, RBP SH3-III (yeast two-hybrid bait) (D. melanogaster); assay: as above
[5] = target: T5, RBP SH3-I (ITC construct) (D. melanogaster); assay: ITC; 25°C, iTC200; RBP SH3-II and SH3-III at 150 µM, SH3-II+III at 78 µM in the cell, titrated with 16 injections of 2.5 µl peptide at 2 mM; 10 mM Tris-HCl pH 7.4, 100 mM NaCl; 'One Set of Sites' model; both purified

| Molecule | binding [3] | binding [4] | other results |
| --- | --- | --- | --- |
| Bruchpilot (BRP), endogenous (from UniProt A0A0B4K7K9 1-2238) |  |  | binding [1]: binds |
| Aplip1 full length (yeast two-hybrid prey clone) (protein, UniProt Q9W0K0 1-490) MADSEFEEFHRPIFEPHTIAGFGSGAGSKKNNPHAFYSLIPNDDLEDSHSSKSDGDGSDQEDGIGLVDHEPKMRQVEDDELGDGLKVTLSSDGSLDTNDSFNSHRHHPLNHQDAIGGFLGMDTSGLGGNSAPVTIGASTDLLAPNTAATRRRRKLPEIPKNKKSSILHLLGGSNFGSLADEFRNGGGGGIPPAVRSGQQRSFLSLKCGYLMDEDSSPDSERMQSLGDVDSGHSTAHSPNDFKSMSPQITSPVSQSPFPPPFGGVPFGQLEMLEATHRGLHKFVPRHHDEIELEIGDAIYVQKEAEDLWCEGVNLRTGRQGIFPSAYAVDLDYNEFDPTVQLVKKERYLLGYLGSVETLAHKGTGVVCQAVRKIVGEYGNSPTGQTCILEVSDQGLRMVDRSGPNQNKKDKKPCIDYFYSLKNVSFCAFHPRDHRFIGFITKHPTVQRFACHVFKGSESTRPVAEAVGRAFQRFYQKFIETAYPIEDIYIE |  |  | binding [2]: binds |
| Aplip1-PXXP2 (yeast two-hybrid prey fragment, 100 AA) (domain or fragment) LLGGSNFGSLADEFRNGGGGGIPPAVRSGQQRSFLSLKCGYLMDEDSSPDSERMQSLGDVDSGHSTAHSPNDFKSMSPQITSPVSQSPFPPPFGGVPFGQ | no binding | no binding |  |
| Aplip1-AXXA1 (yeast two-hybrid prey fragment, 139 AA) (domain or fragment) EDDELGDGLKVTLSSDGSLDTNDSFNSHRHHPLNHQDAIGGFLGMDTSGLGGNSAPVTIGASTDLLAPNTAATRRRRKLAEIAKNKKSSILHLLGGSNFGSLADEFRNGGGGGIPPAVRSGQQRSFLSLKCGYLMDEDS | no binding | no binding |  |
| TRRRRKLPEIPKNKK (N-terminal acetylation; C-terminal amidation) [Aplip-PxxP1 peptide (149-…-163)] |  |  | binding [5]: no binding (tested: peptide at 2 mM in the syringe) |
